No constants are given. Whether binding was seen depends on the method and setting. Binding seen in cells or lysates may run through a third protein. For some assays here: Sequences can lack the tags named with a protein.

By UniProt entry, the sequences of proteins in these tests, tags left out.
UniProt P22147: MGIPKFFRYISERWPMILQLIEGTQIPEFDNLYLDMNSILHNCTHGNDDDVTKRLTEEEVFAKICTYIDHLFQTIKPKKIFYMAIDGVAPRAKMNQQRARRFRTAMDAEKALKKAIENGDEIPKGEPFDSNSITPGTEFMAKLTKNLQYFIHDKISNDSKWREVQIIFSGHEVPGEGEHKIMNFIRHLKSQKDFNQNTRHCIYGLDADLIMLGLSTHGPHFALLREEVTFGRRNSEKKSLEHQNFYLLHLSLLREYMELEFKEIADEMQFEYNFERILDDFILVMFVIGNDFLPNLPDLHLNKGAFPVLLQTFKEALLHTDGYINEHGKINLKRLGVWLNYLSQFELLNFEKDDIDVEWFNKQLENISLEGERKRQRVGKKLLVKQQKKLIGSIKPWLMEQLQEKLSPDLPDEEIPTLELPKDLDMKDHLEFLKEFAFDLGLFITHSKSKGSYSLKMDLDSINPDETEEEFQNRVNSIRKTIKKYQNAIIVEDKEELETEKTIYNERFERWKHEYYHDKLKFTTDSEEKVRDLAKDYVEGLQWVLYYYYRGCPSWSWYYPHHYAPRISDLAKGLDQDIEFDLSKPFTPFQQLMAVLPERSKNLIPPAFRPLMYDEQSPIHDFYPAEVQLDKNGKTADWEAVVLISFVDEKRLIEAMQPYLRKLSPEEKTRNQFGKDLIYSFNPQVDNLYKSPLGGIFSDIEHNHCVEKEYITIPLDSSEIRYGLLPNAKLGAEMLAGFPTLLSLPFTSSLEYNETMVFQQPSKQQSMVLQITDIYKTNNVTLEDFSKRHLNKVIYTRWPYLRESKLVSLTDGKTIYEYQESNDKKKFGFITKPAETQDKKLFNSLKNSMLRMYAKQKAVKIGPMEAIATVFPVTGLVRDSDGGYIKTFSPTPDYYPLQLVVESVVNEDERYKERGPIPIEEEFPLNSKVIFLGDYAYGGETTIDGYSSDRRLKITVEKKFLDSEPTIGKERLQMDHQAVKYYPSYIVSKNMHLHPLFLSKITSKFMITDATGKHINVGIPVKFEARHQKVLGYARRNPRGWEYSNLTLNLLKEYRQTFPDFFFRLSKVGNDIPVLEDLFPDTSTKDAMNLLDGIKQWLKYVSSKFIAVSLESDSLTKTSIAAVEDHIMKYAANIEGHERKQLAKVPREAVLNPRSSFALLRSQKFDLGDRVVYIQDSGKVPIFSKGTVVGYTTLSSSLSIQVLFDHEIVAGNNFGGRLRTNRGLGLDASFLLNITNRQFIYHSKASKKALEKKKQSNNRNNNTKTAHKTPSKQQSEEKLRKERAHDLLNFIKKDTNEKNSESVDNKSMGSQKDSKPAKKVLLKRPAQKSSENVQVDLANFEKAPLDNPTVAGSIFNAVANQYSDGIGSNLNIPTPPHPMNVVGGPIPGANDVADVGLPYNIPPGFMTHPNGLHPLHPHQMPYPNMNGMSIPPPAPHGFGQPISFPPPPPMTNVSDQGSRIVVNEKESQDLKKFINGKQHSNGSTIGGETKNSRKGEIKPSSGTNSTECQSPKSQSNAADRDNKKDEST

Test [1] has as its target GFP-tagged Xrn1 (S. cerevisiae) (UniProt P22147). Nature of the test: co-IP; 1 mg whole cell extract of exponentially growing yeast, pre-cleared with protein A resin, incubated 2 h at 4°C with anti-GFP antibodies covalently linked to sepharose beads; six washes with breaking buffer (30 mM HEPES-KOH pH 7.4, 50 mM KCl, 10% glycerol); immunoblot with antibodies against GFP, Gcn1, Gcn2, Gcn20, Pgk1. For orientation: A western blot detects proteins with antibodies after separation by electrophoresis.

Test [2] has as its target T1, Gcn20-GFP (S. cerevisiae) (UniProt P43535).
T1 sequence: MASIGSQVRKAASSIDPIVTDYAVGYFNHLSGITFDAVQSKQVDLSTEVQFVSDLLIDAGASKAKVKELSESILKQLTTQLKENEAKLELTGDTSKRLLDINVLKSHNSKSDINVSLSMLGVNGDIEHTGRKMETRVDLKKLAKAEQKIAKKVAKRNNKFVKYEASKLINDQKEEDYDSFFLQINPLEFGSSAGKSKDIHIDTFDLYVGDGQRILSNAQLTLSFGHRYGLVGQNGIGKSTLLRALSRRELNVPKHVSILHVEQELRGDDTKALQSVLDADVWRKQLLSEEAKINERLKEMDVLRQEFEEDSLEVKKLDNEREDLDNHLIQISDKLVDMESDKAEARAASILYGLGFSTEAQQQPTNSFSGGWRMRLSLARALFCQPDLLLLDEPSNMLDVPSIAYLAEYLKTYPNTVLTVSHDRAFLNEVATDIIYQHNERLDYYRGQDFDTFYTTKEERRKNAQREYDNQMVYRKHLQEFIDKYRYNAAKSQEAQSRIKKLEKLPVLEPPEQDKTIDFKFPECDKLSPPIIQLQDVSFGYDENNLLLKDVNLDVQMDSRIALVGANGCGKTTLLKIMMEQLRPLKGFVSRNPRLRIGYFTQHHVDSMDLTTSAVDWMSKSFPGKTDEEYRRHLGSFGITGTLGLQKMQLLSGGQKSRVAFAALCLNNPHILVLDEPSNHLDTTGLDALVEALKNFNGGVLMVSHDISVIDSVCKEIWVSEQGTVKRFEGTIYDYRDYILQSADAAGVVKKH
Described as above.

B1: Pgk1 (protein, UniProt P00560 1-416)
chain: MSLSSKLSVQDLDLKDKRVFIRVDFNVPLDGKKITSNQRIVAALPTIKYVLEHHPRYVVLASHLGRPNGERNEKYSLAPVAKELQSLLGKDVTFLNDCVGPEVEAAVKASAPGSVILLENLRYHIEEEGSRKVDGQKVKASKEDVQKFRHELSSLADVYINDAFGTAHRAHSSMVGFDLPQRAAGFLLEKELKYFGKALENPTRPFLAILGGAKVADKIQLIDNLLDKVDSIIIGGGMAFTFKKVLENTEIGDSIFDKAGAEIVPKLMEKAKAKGVEVVLPVDFIIADAFSADANTKTVTDKEGIPAGWQGLDNGPESRKLFAATVAKAKTIVWNGPPGVFEFEKFAAGTKALLDEVVKSSAAGNTVIIGGGDTATVAKKYGVTDKISHVSTGGGASLELLEGKELPGVAFLSEKK
In the case of B1, the binding entry in test [1] and in test [2] was “no binding” each time.

The values are drawn from publication PMC11088878.
